Experimental data: PubChem BioAssay AID1508597 (Cure First, 2020)
Purpose: 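Survival screen with siRNA in ovarian cancer cells derived from patients, with or without rucaparib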 (primary screen). Cells: human ovarian carcinoma lines grown from tumours: OCI-P5x (papillary serous) and OCI-C5x (clear cell). Reagent: siRNA pool against human genes, 1.25 pmol siRNA per well. Duration: 72 h or 96 h, depending on the cell culture. Treatment: rucaparib 20 µM (about IC30) or vehicle, present until read-out. Rucaparib or vehicle: Vehicle. Cell line: OCI-C5x (clear cell). Measurement: 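ATP luminescence measured at 72 or 96 h according to the culture, then normalised and expressed as percent viability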. Scale: viability, normalised: higher = more viable cells remaining. Call rule: 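Active when normalised viability falls below 80 percent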. Meaning of the calls: active = viability under 80%; inactive = viability 80% or more.
This is an unselected part of the about 2,100 reagents, in one setting of the screen. 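Calls flag viability under 80% in either arm, not effects specific to rucaparib; the reference for percent is not stated.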 Unmarked entries are inactive. A reagent listed more than once was tested more than once; the source does not tell the runs apart. No sequences are given here. Not given: the 100% reference.

CASP7, technical replicate 1
- viability, normalised (%): 48.6 (active)

CASP7, technical replicate 2
- viability, normalised (%): 39.5 (active)

CASP7, technical replicate 3
- viability, normalised (%): 62.3 (active)

ERBB4, technical replicate 1
- viability, normalised (%): 74.6 (active)

ERBB4, technical replicate 2
- viability, normalised (%): 52.5 (active)

ERBB4, technical replicate 3
- viability, normalised (%): 60.6 (active)

TRMT112, technical replicate 1
- viability, normalised (%): 68.6 (active)

TRMT112, technical replicate 2
- viability, normalised (%): 72.1 (active)

TRMT112, technical replicate 3
- viability, normalised (%): 80.6

MRI1, technical replicate 1
- viability, normalised (%): 61.9 (active)

MRI1, technical replicate 2
- viability, normalised (%): 43.8 (active)

MRI1, technical replicate 3
- viability, normalised (%): 60.7 (active)

PDE4B, technical replicate 1
- viability, normalised (%): 36.2 (active)

PDE4B, technical replicate 2
- viability, normalised (%): 49.1 (active)

PDE4B, technical replicate 3
- viability, normalised (%): 42 (active)

WNK1, technical replicate 1
- viability, normalised (%): 60.7 (active)

WNK1, technical replicate 1
- viability, normalised (%): 60.2 (active)

WNK1, technical replicate 2
- viability, normalised (%): 55.6 (active)

WNK1, technical replicate 2
- viability, normalised (%): 37.2 (active)

WNK1, technical replicate 3
- viability, normalised (%): 36.1 (active)

WNK1, technical replicate 3
- viability, normalised (%): 65 (active)

KMT5C, technical replicate 1
- viability, normalised (%): 71.8 (active)

KMT5C, technical replicate 2
- viability, normalised (%): 78.9 (active)

KMT5C, technical replicate 3
- viability, normalised (%): 38.4 (active)

MASTL, technical replicate 1
- viability, normalised (%): 55.5 (active)

MASTL, technical replicate 2
- viability, normalised (%): 66.9 (active)

MASTL, technical replicate 3
- viability, normalised (%): 44.9 (active)

CSNK1D, technical replicate 1
- viability, normalised (%): 96

CSNK1D, technical replicate 1
- viability, normalised (%): 117

CSNK1D, technical replicate 2
- viability, normalised (%): 71.3 (active)

CSNK1D, technical replicate 2
- viability, normalised (%): 51.4 (active)

CSNK1D, technical replicate 3
- viability, normalised (%): 49.5 (active)

CSNK1D, technical replicate 3
- viability, normalised (%): 72.2 (active)

Already shown: 4 of the entries above.
PDE4B, technical replicate 1
- viability, normalised (%): 36.2 (active)

PDE4B, technical replicate 2
- viability, normalised (%): 49.1 (active)

PDE4B, technical replicate 3
- viability, normalised (%): 42 (active)

WNK1, technical replicate 1
- viability, normalised (%): 60.7 (active)
